Assay results as given in PubChem BioAssay AID504444 (National Center for Advancing Translational Sciences (NCATS), 2011).
About 7,500 (2.1%) of roughly 360,000 compounds were called active. Inconclusive results, whose numbers are uncertain, are shown with a selection of clear calls. Calls follow the shape of the dose curve; as a rule, active = well fitted inhibition curve with a large enough effect; inconclusive = small, poorly fitted or top-dose-only effect, or effect the other way; inactive = flat fitted curve, though single readings scatter. Potencies beside an inconclusive call are fits to weak or partial responses and may not hold up.

Experiment: Nrf2 qHTS screen for inhibitors; also: nearly all actives have a fitted effect of over 60% in size
Details: A549 ARE-Fluc reporter, luciferase luminescence, 18-24 h; activity change, negative = inhibition: at 46 µM (top of the series)
Outline: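 Nrf2 function is reported as luminescence of an ARE-controlled luciferase in A549 cells. Compounds were tested at several concentrations, and a CellTiter-Fluor read on the same wells flagged cytotoxicity.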
% is scaled to controls: 0 for no effect and ±100 for the full control effect; potency is read from the fitted curve at half-maximal effect.

Structure (SMILES) | Potency | activity change, negative = inhibition
CC(C)Oc1ccc(CNC(=O)CCCN2C(=O)c3cccnc3Oc3ccc(Cl)cc32)cc1 | inconclusive: 29.1 µM [falling, single point] | –
COC(=O)c1c(NC(=O)c2cccnc2)sc(C(=O)N(C)C)c1C | inconclusive: 18.4 µM [activator, partial curve] | –
CCc1cc(=O)oc2c3c(c(Cl)cc12)OCN(Cc1cccc(OC)c1)C3 | – | inactive: 15.7%
CC1=NN(c2cccc(Cl)c2)C(=O)C1 | – | inactive: -13.5%
Cc1cc(C)c2ccc(/C=N/O)nc2c1O | – | inactive: 12.5%
COc1cccc(NC(=O)CN(C)C(C)C(=O)Nc2cc([N+](=O)[O-])ccc2Cl)c1 (configuration not stated) | inconclusive: 3.66 µM [falling, full curve, poor fit] | –
COc1cc(OC)cc(-c2c(-c3cccs3)c3cc(-c4ccc(C(N)=O)cc4)ccc3n2C)c1 | inconclusive: 20.6 µM [falling, single point] | –
CCOC(=O)c1scc(-c2ccccc2)c1S(=O)(=O)Nc1cc(OC)cc(OC)c1 | inconclusive: 1.64 µM [falling, partial curve, poor fit] | –
COc1ccc(NC(=O)c2cn3c(nc4ccccc43)c(C#N)c2C)cc1 | – | inactive: -21.6%
Cc1cc2ccccc2n1CCNC(=O)c1cccc(Br)c1 | inconclusive: 13 µM [falling, partial curve, poor fit] | –
CCN(CC)CCCNC(=O)c1oc2ccc(S(=O)(=O)N3CC(C)CC(C)C3)cc2c1C (configuration not stated) | – | inactive: 17.5%
CCOC(=O)c1sc(NC(=O)CSc2nnc(C)s2)c(C(=O)OCC)c1C | inconclusive: 16.4 µM [activator, single point] | –
COc1ccc(OC)c(CCNC(=O)CCCn2c(=O)c3cccn3c3ccccc32)c1 | – | inactive: 1.07%
CCOc1ccc(S(=O)(=O)N2CCCCC2)cc1NC(=O)Cc1ccsc1 | – | inactive: -22.7%
O=C(c1ccco1)N1CCN(C(=O)C2CC(=O)N(c3ccccc3)C2)CC1 (configuration not stated) | – | inactive: 3.71%
COC(=O)c1ccc(/C=C/c2c(-c3ccc(OC)cc3)sc3ccccc23)cc1 | inconclusive: 3.66 µM [activator, partial curve] | –
O=C(NCc1cccnc1)/C(=C/c1ccc(-c2cccc(C(F)(F)F)c2)o1)NC(=O)c1ccccc1 | inconclusive: 7.31 µM [falling, partial curve, poor fit] | –
Cc1c(Cl)cccc1NC(=O)c1cnc2sc(N3CCOCC3)nn2c1=O | – | inactive: -8.92%
CC(=O)C12CCCCC1CC1[C@@H]3CC(C)C4=CC(=O)CC[C@]4(C)C3CC[C@@]12C (some centres not stated) | inconclusive: 1.46 µM [falling, full curve, poor fit] | –
CCN(c1ccccc1)S(=O)(=O)c1ccc(NC(=O)c2cc(=O)c3cc(C)cc(C)c3o2)cc1 | inconclusive: 18.4 µM [falling, partial curve] | –
COc1cc(CNC(C)c2ccccc2)cc(Br)c1OCc1ccccc1 (configuration not stated) | – | inactive: 2.98%
O=C(COc1ccccc1Cl)NC(=S)Nc1ccc(CN2CCOCC2)cc1 | inconclusive: 29.1 µM [falling, single point] | –
COc1ccc(NS(=O)(=O)c2cc(NC(=O)CCSc3ccccc3)ccc2OC)cc1 | inconclusive: 18.4 µM [falling, partial curve, poor fit] | –

Structure (SMILES) | Potency | activity change, negative = inhibition
CC(=O)c1ccc(Oc2ccc(C(C)=O)cc2)cc1 | inconclusive: 6.51 µM [activator, full curve] | –
CC(C)(C)c1ccc(C2=NC(=O)C(CC(=O)O)S2)cc1 (configuration not stated) | inconclusive: 3.26 µM [activator, full curve] | –
CCOC(=O)CNC(=O)Nc1nnc(-c2ccc(OCC)cc2)o1 | – | inactive: 0.807%
COc1ccc(CCNC(=O)CSc2cn(Cc3ccccc3)c3ccccc23)cc1OC | inconclusive: 6.51 µM [falling, partial curve, poor fit] | –
CC(=O)c1c(C)[nH]c(C(=O)Nc2ccc(C)c(S(=O)(=O)N(C)C)c2)c1C | inconclusive: 5.8 µM [activator, full curve] | –
O=C(Nc1ccc(OC(F)(F)F)cc1)C1CCCN(S(=O)(=O)c2cccnc2)C1 (configuration not stated) | inconclusive: 4.11 µM [falling, full curve, poor fit] | –
CCOC(=O)NC1(Nc2ccc(C)cc2)Oc2ccccc2O1 | inconclusive: 23.1 µM [activator, single point] | –
COc1ccc(-n2nc(C(=O)NCC(=O)NCCc3ccc(OC)c(OC)c3)c3ccccc3c2=O)cc1Cl | – | inactive: -12.8%
Cc1c(Cc2ccccc2)c(NCCN(C)C)n2c(nc3ccccc32)c1C#N | inconclusive: 7.31 µM [falling, partial curve, poor fit] | –
COc1ccc(Cn2c(=O)[nH]c3cc(C(=O)NCc4ccc5c(c4)OCO5)ccc3c2=O)cc1 | inconclusive: 8.2 µM [falling, partial curve, poor fit] | –
COc1ccc(OCc2cccc(C(=O)Nc3cc(C)on3)c2)cc1 | inconclusive: 0.366 µM [activator, full curve, poor fit] | –
COc1ccc(-c2nsc(C(=O)N(c3ccc(F)cc3)C(C(=O)NC3CCCC3)c3ccc(OC)cc3)c2N)cc1 (configuration not stated) | – | inactive: -12.7%
CC(C)CCNC(=S)Nc1ccc2nc3n(c(=O)c2c1)CCCCC3 | inconclusive: 16.4 µM [falling, single point] | –
COc1ccc(CCC2(C)NC(=O)N(C(C)C(=O)Nc3ccccc3F)C2=O)cc1 (configuration not stated) | – | inactive: -10.2%
COc1ccc(-c2nn(-c3ccccc3)cc2/C=N/Nc2ccc3ccccc3n2)cc1OC | – | inactive: -20.3%
O=C(O)CCn1cc(-c2ccc(Cl)cc2)nc1-c1ccncc1 | – | inactive: 3.07%
CCOC(=O)Cc1csc(NC(=O)c2ccc(C)c(S(=O)(=O)N3CCOCC3)c2)n1 | inconclusive: 11.6 µM [falling, partial curve, poor fit] | –
S=c1nc(-c2ccccc2)[nH]c2ccccc12 | inconclusive: 2.91 µM [activator, partial curve, poor fit] | –
C=CCNC(=O)c1onc(CSc2ccc(C)c(C)c2)c1C(=O)O | inconclusive: 4.61 µM [activator, full curve, poor fit] | –
Cc1ccc(COc2ccc(C)nc2[N+](=O)[O-])cc1 | inconclusive: 2.59 µM [activator, full curve] | –
O=C(c1ccc(N2CN(C(=O)c3ccco3)c3nc4ccccc4nc32)cc1)N1CCOCC1 | inconclusive: 18.4 µM [falling, single point] | –
Clc1ccc(C=Cc2ccccn2)cc1 | inconclusive: 14.6 µM [activator, partial curve] | –
CCc1ccc(OCc2ccc(C(=O)O)o2)cc1 | inconclusive: 2.59 µM [activator, full curve] | –

No new results follow: entries from further up.
Structure (SMILES) | Potency | activity change, negative = inhibition
Cc1c(Cc2ccccc2)c(NCCN(C)C)n2c(nc3ccccc32)c1C#N | inconclusive: 7.31 µM [falling, partial curve, poor fit] | –
COc1ccc(Cn2c(=O)[nH]c3cc(C(=O)NCc4ccc5c(c4)OCO5)ccc3c2=O)cc1 | inconclusive: 8.2 µM [falling, partial curve, poor fit] | –
COc1ccc(OCc2cccc(C(=O)Nc3cc(C)on3)c2)cc1 | inconclusive: 0.366 µM [activator, full curve, poor fit] | –
COc1ccc(-c2nsc(C(=O)N(c3ccc(F)cc3)C(C(=O)NC3CCCC3)c3ccc(OC)cc3)c2N)cc1 (configuration not stated) | – | inactive: -12.7%

Remaining list, next part

Structure (SMILES) | Potency | activity change, negative = inhibition
Cc1ccnc(SCC(=O)NC2CCCCCC2)n1 | – | inactive: -11.7%
COc1ccc(C2(C)NC(=O)N(CC(=O)Nc3ccc(Br)cc3F)C2=O)cc1OC (configuration not stated) | inconclusive: 18.4 µM [falling, partial curve] | –
CCCOc1ccc(C(O)(CCC)CCN2CCCCC2)cc1 (configuration not stated) | inconclusive: 7.31 µM [falling, partial curve, poor fit] | –
CCCc1n[nH]c(=O)c2c1nnn2Cc1ccccc1F | inconclusive: 5.8 µM [falling, partial curve, poor fit] | –
C=CCn1cc(C(=O)NCCN(CC)CC)c(=O)c2cc(S(=O)(=O)N3CCCCCC3)ccc21 | – | inactive: 9.82%
CCOc1ccccc1N1CC(C(=O)Nc2ccc3c(c2)OCCO3)CC1=O (configuration not stated) | – | inactive: 3.28%
C[C@@H]1C(c2cccc(Cl)c2)=NN(c2ccccc2)[C@H]1C(=O)N1CCOC1=O | inconclusive: 9.2 µM [activator, partial curve, poor fit] | –
Fc1cccc(/C=N/Nc2nncc3ccccc23)c1 | inconclusive: 2.06 µM [activator, full curve] | –
CCCCC(=O)OC1CCC2C3CCc4cc(O)ccc4C3CCC12C (configuration not stated) | inconclusive: 20.6 µM [falling, single point] | –
O=C(/C=C/c1ccc2c(c1)OCO2)N1CCCCC1 | inconclusive: 3.66 µM [activator, partial curve, poor fit] | –
CCOc1ccccc1N1CC(c2nc3ccccc3n2CCOc2ccccc2)CC1=O (configuration not stated) | inconclusive: 29.1 µM [falling, single point] | –
CC(C)(O)C#Cc1ccc(C(=O)NC2CCCCC2)s1 | inconclusive: 7.31 µM [activator, partial curve] | –
CCc1ccc(CNc2ncnc3c2nc2n3CCCC2)cc1 | inconclusive: 29.1 µM [falling, single point] | –
CC1=NN(/C(=N\c2nnc(C)s2)Nc2ccc(C(C)(C)C)cc2)[C@H](c2ccc(C)cc2)S1 | inconclusive: 29.1 µM [falling, single point] | –
Nc1nc(SCc2ccccc2)c2ncn(C3CCCCC3)c2n1 | inconclusive: 29.1 µM [falling, single point] | –
CNc1oc(-c2ccccc2Cl)nc1P(=O)(c1ccccc1)c1ccccc1 | inconclusive: 29.1 µM [falling, single point] | –
O=C(CO/N=C/c1ccc2c(c1)OCO2)Nc1cccc(Br)c1 | – | inactive: 10.9%
CN(C)c1ccc(NC(=O)CSc2nc(N)c(C(=O)Nc3ccc(N(C)C)cc3)s2)cc1 | inconclusive: 35.5 µM [falling, single point] | –
Cc1ccc(-c2nc(C)sc2CC(=O)Nc2nnc(C)s2)cc1 | inconclusive: 29.1 µM [falling, single point] | –
O=c1c2ccccc2nc2sc(Nc3ccc(F)cc3)nn12 | inconclusive: 14.6 µM [activator, partial curve] | –
Cc1ccc(S(=O)(=O)c2nnn3c2nc(Nc2cccc(C)c2)c2ccccc23)cc1 | – | inactive: -12.7%
